Experimental data published in article PMC10700342.
No constants are given. Whether binding was seen depends on the method and setting. Binding seen in cells or lysates may run through a third protein. Some entries that bind do so weakly or less than the wild type.

The chains behind the UniProt entries cited, without tags or fusion partners.
UniProt P62330: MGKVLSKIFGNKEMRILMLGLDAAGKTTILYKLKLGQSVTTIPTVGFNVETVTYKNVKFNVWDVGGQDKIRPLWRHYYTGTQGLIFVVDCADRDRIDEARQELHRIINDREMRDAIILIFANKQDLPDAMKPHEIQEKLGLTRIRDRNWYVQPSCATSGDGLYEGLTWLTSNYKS
UniProt Q99418: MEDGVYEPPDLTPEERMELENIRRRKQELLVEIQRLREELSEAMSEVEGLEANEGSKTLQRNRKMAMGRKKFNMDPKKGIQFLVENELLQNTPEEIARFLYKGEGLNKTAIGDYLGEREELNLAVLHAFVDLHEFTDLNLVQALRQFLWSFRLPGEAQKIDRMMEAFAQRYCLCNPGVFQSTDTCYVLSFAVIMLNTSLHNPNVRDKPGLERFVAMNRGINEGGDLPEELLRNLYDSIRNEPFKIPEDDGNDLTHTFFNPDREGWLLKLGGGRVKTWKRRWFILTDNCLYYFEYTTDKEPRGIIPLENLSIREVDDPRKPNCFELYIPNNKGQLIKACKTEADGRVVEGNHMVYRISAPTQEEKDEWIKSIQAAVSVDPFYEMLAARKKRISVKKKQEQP

Biological target: ARF6, endogenous in HaCaT keratinocytes (human (endogenous in HaCaT)) (UniProt P62330)
Experiment: co-IP; ARF6 immunoprecipitated with rabbit anti-ARF6 (D12G6) and Protein A sepharose from HaCaT lysates (1% Igepal, 150 mM NaCl, 4 °C) after 0, 30 or 60 min CAR or mCAR treatment; CYTH2 detected by western blot; non-immune rabbit IgG control

- binding: binds
Substance: CYTH2 (Cytohesin-2, ARNO), endogenous in HaCaT keratinocytes (from UniProt Q99418 1-400)
